In patent publication US20200400567A1, “FUSION POLYPEPTIDE” (PEKING UNIVERSITY, priority 2017, published 2020):

System: human acetylcholine receptor M3R subtype
Test: GRAB-ACh sensor fluorescence response to ACh, drug perfusion in HEK293T cells
Type: cell-based
Details: 100 μM ACh perfusion, n=10 cells per group
Protocol: After DNA encoding specific GRAB sensor was introduced into cells by transfection, fluorescence imaging combined with perfusion experiment was. The imaging capture of HEK293T cells was performed using an Olympus IX81 inverted microscope, 40×NA: 1.35 oil lens, 475/28 excitation light filter, and 515LP emission light filter. The optical signal was collected by a Zyla sCMOS DG-152V-Cle FI camera (Andor), and Lambda DG-4 from Sutter Instuments company was used as a fluorescent light source. The exposure time was set to less than 50 ms and the acquisition frequency was 5 seconds. The entire imaging system was overall controlled by micromanager software.
The detection of the response of the GRAB sensor to the ligand (ΔF/F0) was performed using a drug perfusion method. […]
Fluorescence imaging data was processed using ImageJ software. For the performance of GRAB sensors in HEK293T cells and neurons, the fluorescence of entire cell body was selected as the data processing region. For living Drosophila imaging, fluorescence images on the same Z axis were analyzed by ImageJ software. The change in the fluorescence signal was indicated by its relative difference. The signal of background area without the expression of the sensor was first subtracted from the fluorescence signal, so as to obtain the real expression of the intensity of the fluorescent protein. […]

For “GRAB-ACh 2.0: GRAB-ACh variant with GG-APSVA peptide linkers, SEQ ID NO: 16”, which signal-to-noise ratio is on record?
The signal-to-noise ratio was 724±9.
